Test results published in publication PMC10036118.
The exact form of at least one protein or probe is not confirmed. For some of these results: No signal at the amounts used counts as a negative.

By UniProt entry, the sequences of proteins in these tests, tags left out. Where a name states a change or a piece, a line headed by the entry shows the natural chain unless it says otherwise.
UniProt Q9M0L0: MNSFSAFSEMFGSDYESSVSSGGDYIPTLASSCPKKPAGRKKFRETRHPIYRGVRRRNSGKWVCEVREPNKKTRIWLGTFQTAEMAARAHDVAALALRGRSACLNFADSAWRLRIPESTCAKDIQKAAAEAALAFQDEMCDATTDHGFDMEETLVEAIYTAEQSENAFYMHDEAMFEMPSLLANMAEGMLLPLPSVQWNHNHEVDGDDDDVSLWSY

Each sequence was assayed against MBP-CBF3 (Arabidopsis thaliana) (UniProt Q9M0L0) (assay: competition with a labelled probe). Conditions: 100-fold excess competitor, DRE1 probe, EMSA: 10 mM Tris-HCl pH 7.5, 1 mM EDTA, 50 mM NaCl, 5% glycerol, 5 mM DTT, room temperature, 5 uM protein, 100 nM Cy5 probe, recombinant protein.

Row | Sequence | binding result
1 | AATATCTGGCCCGACGAAGAAAAAG (double strand) [DREb] | no binding
2 | ACAAAAGTAGCCGACAAGTCACCTT (double strand) [DREc] | binds
3 | GGACAAATCTCCGACAATCTTCCGG (double strand) [DREd] | no binding
4 | TTGAACTCTTCCGACTTCTCAAAAC (double strand) [DREa] | no binding

Same assay, conditions: 100-fold excess competitor, EMSA: 10 mM Tris-HCl pH 7.5, 1 mM EDTA, 50 mM NaCl, 5% glycerol, 5 mM DTT, room temperature, 5 uM protein, 100 nM Cy5 probe, recombinant protein

Row | Sequence | binding result
5 | CCGAATGTGACCGACATAGGCCCAA (double strand) [DRE1 competitor] | binds
6 | CCGAATGTGTGAACCCAAGGCCCAA (double strand) [DRE1m] | no binding
7 | TATGGAAGAGGTCGGTCACGTTAAC (double strand) [DRE2 competitor] | binds
8 | TATGGAAGCGAGGTGTCACGTTAAC (double strand) [DRE2m] | no binding

What follows are sequences tested against MBP-CBF3 (Arabidopsis thaliana) (UniProt Q9M0L0) (assay: EMSA). Conditions: 5 uM protein, 100 nM probe, EMSA: 10 mM Tris-HCl pH 7.5, 1 mM EDTA, 50 mM NaCl, 5% glycerol, 5 mM DTT, room temperature, 100 nM Cy5 probe, 100-fold excess competitor, recombinant protein, label: Cy5 (5' on printed strand).

Row | Sequence | binding result
9 | CCGAATGTGACCGACATAGGCCCAA (double strand) [DRE1 probe] | binds
10 | TATGGAAGAGGTCGGTCACGTTAAC (double strand) [DRE2 probe] | binds
